Source: patent US7906547B2, “Azabicylic compounds, a process for their preparation and pharmaceutical compositions containing them” (Les Laboratoires Servier, priority 2008, dated 2011)
Counter-ions that a name gives are not always drawn. At least one structure is not confirmed: it was looked up by name or label, or the drawing left a doubt.

Chains of the proteins cited; added tags and fusions are not shown. Lines headed by an entry give the natural chain unless they say otherwise; changes in a name come on top.
UniProt P58406: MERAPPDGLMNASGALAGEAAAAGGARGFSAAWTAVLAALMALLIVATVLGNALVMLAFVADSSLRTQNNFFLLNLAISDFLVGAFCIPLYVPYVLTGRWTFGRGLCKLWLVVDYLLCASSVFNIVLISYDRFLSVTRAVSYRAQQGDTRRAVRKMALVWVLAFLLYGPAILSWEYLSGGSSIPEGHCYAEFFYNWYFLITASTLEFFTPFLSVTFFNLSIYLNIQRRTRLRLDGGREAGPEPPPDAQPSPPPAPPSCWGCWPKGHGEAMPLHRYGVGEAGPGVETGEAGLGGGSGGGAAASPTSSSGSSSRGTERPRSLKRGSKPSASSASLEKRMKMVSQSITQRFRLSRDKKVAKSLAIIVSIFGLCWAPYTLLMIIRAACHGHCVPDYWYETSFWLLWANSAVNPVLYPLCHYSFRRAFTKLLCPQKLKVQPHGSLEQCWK

Tests used:
[1] = molecular target: T1, type H3 central histamine receptors (Mus musculus, UniProt P58406); assay: Cerebral levels of Nτ-methylhistamine in the NMRI mouse (ex vivo H3 antagonist activity); details: one hour after treatment, vs carrier
T1 construct: the brains are removed, frozen in liquid nitrogen, weighed and homogenised; from tissue; host or cells: brain of living NMRI mice (oral dosing)
Procedure: The purpose of this study, which was carried out in accordance with the method of Taylor et al. (Biochem. Pharm., 1992, 44, 1261-1267), is to evaluate the ex vivo activity of the compounds of the present invention as antagonists of type H3 central histamine receptors. […] An increase in the cerebral concentrations of N^τ-methylhistamine indicates an increase in the turn-over of histamine by blockage of the type H3 central histamine receptors.
NMRI mice (18-20 g) are treated with compounds of the present invention or with their carrier (20 ml/kg) by the oral route. One hour after the pharmacological treatment, the animals are sacrificed; the brains are removed, frozen in liquid nitrogen, weighed and homogenised in 0.1N HClO4 at 4° C. The homogenised products are centrifuged (15 000 g, 17 min, 4° C.). The supernatants are recovered and divided into aliquots. The aliquots are frozen in liquid nitrogen and stored at −80° C. until they are analysed.
Determination of the cerebral levels of N^τ-methylhistamine is carried out by capillary electrophoresis. The tissue levels of N^τ-methylhistamine are expressed in μg/g of fresh brain. […]

[2] = test system: Wistar rat; assay: Electroencephalogram recordings in the awake Wistar rat; assay type: in vivo; details: 3 mg/kg IP
Procedure: Electrodes are chronically implanted in adult male Wistar rats, being located at the surface of the frontal and parietal cortex. Cortical electroencephalogram (EEG) recordings are made in the rats placed in cages in a sound-proofed room. The compounds and carriers are administered in randomised manner by the intraperitoneal route at 10 o'clock on the same days with a minimum of 3 days between each administration, allowing each rat to be used as its own control. The absolute power of the slow delta activities (1-4 Hz), which predominate during slow sleep and disappear during wakefulness and paradoxical sleep, is averaged over successive periods of 30 minutes. Over 30 minutes, high and low values for the power of the slow delta activities are signs of […], respectively.

NC(=O)c1ccc(OCCCN2C[C@H]3C[C@H]3C2)cc1 [Example 1, 4-{3-[(1R,5S)-3-Azabicyclo[3.1.0]hex-3-yl]propoxy}-benzamide hydrochloride]
increase in endogenous cerebral concentrations of Nτ-methylhistamine ([1]; 10 mg/kg PO): 99% | increase in endogenous cerebral concentrations of Nτ-methylhistamine ([1]; 30 mg/kg PO): 227% | effect on power of the slow delta waves (1-4 Hz), cortical EEG [2]: significant reduction
